Reference: PMC12109978
Results are given in words; binding and its absence hold for the method and conditions named. A result given as binding can be weak or reduced; the word gives no strength.

Experiments:
[1] = biological target: T1, human tropomodulin 4 (Tmod4) (human) (UniProt Q9NZQ9); assay: cross-linking; glutaraldehyde 0.002% or 0.008%, 30 mM HEPES pH 7.3, 200 mM NaCl, 30 °C, 15 and 60 min; Tpm 0.2 mg/mL, Tmod 0.12 mg/mL; SDS-PAGE in 12.5% gel; both purified
T1 sequence: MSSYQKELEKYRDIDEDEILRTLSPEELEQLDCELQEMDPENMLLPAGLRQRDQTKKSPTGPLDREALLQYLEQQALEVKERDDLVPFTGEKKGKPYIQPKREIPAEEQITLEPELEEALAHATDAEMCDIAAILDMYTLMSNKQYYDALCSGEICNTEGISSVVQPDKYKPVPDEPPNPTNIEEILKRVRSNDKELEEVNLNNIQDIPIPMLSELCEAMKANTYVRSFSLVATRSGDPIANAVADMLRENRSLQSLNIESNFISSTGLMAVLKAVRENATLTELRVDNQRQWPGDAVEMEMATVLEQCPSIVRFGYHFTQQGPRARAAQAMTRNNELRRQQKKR

[2] = biological target: T1, human tropomodulin 4 (Tmod4) (human); assay: SEC; Superose 6 Increase 10/300 GL, 50 mM HEPES-Na pH 7.3, 150 mM NaCl, 1 mM DTT, 0.5 mL/min, 280 nm; 30 µM Tpm and Tmod1, or 26 µM Tpm and 13 µM Tmod4; single proteins and mixtures; both purified

Substance	binding [1]	binding [2]
human tropomyosin Tpm1.1 with Ala-Ser N-terminal extension	binds	binds
human tropomyosin Tpm1.2 with Ala-Ser N-terminal extension	binds	binds
